Results reported in PubChem BioAssay AID2685 (National Center for Advancing Translational Sciences (NCATS), 2010).
Among all 320,000 compounds or so, about 2,100 (0.66%) were called active. The inconclusive results got no clear call from the source; some entries with a clear call stand among them for comparison. Calls come from the whole dose curve; as a rule, active = well fitted inhibition curve with a large enough effect in the signal ratio, with a control signal flat (not every such curve was filed as active); inconclusive = small, poorly fitted or top-dose-only effect, or effect the other way, or a change in a side signal; inactive = flat fitted curve, though single readings scatter; the % refers to the signal ratio. Potencies of inconclusive entries are doubtful fits and often do not repeat.

test: qHTS Assay for Lipid Storage Modulators in Drosophila S3 Cells; details: BODIPY lipid droplet fluorescence, 18-24 h, cells fed with added oleic acid; lipid storage change, negative = inhibition: at 46.1 µM (top of the series) unless noted
In short: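 Laser-scanning cytometry quantifies lipid droplet accumulation (500–530 nm total intensity; droplet/cell object ratio) in oleic acid-fed (400 uM added) Drosophila S3 cells treated with a concentration series. 20 uM Triacsin C defined 100% inhibition.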
% is set by controls: 0 for no effect and ±100 for the full control effect; potency is the fitted concentration of half-maximal effect.

Lipid storage change, negative = inhibition, inconclusive:
COCCCn1c(CCC(=O)O)ccc1-c1ccc(F)cc1 -1.12%, Cc1ccc(Cn2cccc(NC(=O)CCC3CCCC3)c2=O)cc1 -6.73%, S=C(Nc1ccc(Cl)cc1)Nc1ccc2cn[nH]c2c1 1.73%, COCCNC(=O)c1cc(OC)c(OC)cc1[N+](=O)[O-] -24.1%, O=C(NNC(=O)c1ccccc1)C(=O)N1CCCCC1 30%, COc1cc(OC)cc(C(=O)NNC(=O)c2ccccc2Br)c1 3.16%, Fc1ccc(C2CCCN2Cc2nc(-c3cnccn3)no2)cc1 (configuration not stated) 15.5%, COC(=O)N/N=C/c1ccc(-c2ccc(Cl)cc2Cl)o1 29.7%, CCN(Cc1ccccc1)C(c1cc2cc(C)ccc2[nH]c1=O)c1nnnn1CCOC (configuration not stated) -36.6%, CCCN1C/C(=C/c2ccc3c(c2)OCO3)C(=O)/C(=C/c2ccc3c(c2)OCO3)C1 -30.8%, CCOc1ccc(NC(=O)CC(Cc2ccc(Cl)cc2)C(=O)O)cc1 (configuration not stated) 56.5%, CC(=O)N1c2ccc(S(=O)(=O)N3CCC(C(=O)N4CCCCC4)CC3)cc2CC1C (configuration not stated) 12.5%, O=C(Oc1cccc2cccnc12)c1cccc([N+](=O)[O-])c1 21.7%, CCN1C(=NCc2cc(OC)c(OC)c(OC)c2)N[C@@H](c2ccccc2)[C@H](C(=O)OC)[C@H]1C -11.9%, Cc1cc(C)c2c(c1)cc(C)c1nnc(SCC(=O)N3CCCc4ccccc43)n12 -0.125%, CN(C)S(=O)(=O)c1ccc(C(=O)Nc2cc3c(cc2C(=O)O)OCCCO3)cc1 -12.7%, COc1cccc(NC(=O)Nc2nnc(CC(=O)NCc3ccccc3)s2)c1 20.6%, CC1Cc2ccccc2N1C(=O)c1cnc2n(c1=O)CCS2 (configuration not stated) 9.88%, O=C(CSC1=NS(=O)(=O)c2cc(F)ccc2N1)NCc1ccccc1Cl -1.15%, O=C(Cn1ccc(NC(=O)OCc2ccccc2)nc1=O)NCCCN1CCCC1=O 6.69%, O=C(NCCc1cscn1)C1CCC(=O)N(Cc2ccc(Cl)cc2)C1 (configuration not stated) 16.8%, CC(=O)Nc1ccc(NC(=O)C(C)OC(=O)c2oc3ccccc3c2C)cc1 (configuration not stated) 2.63%, CN(/C(=N\S(=O)(=O)c1ccccc1)c1ccccc1)c1ccc(O)cc1 -16.7%, CCOC(=O)Cn1nc(C)n(-c2ccc(Cl)cc2)c1=O 13.6%, OC(C#CCN1CCCC1)(c1ccccc1)c1cccc(F)c1 (configuration not stated) -80.6%, CCc1cc2c(SCC(=O)c3cccs3)ncnc2s1 28.3%, Cc1c(C(=O)Nc2c(F)cc(F)cc2Br)sc2ncn(CC(=O)N3CCCC3)c(=O)c12 -2.97%, Cc1ccc(S(=O)(=O)c2nc(S(C)(=O)=O)sc2N2CCC(O)CC2)cc1 -40.5%, COc1cccc(OCc2nnc(SCc3cc(=O)[nH]c4ccccc34)o2)c1 12.4% [at 9.22 µM], COc1cc([N+](=O)[O-])ccc1NC(=O)Nc1nc2c(s1)CCCC2 17%, CC(=O)N(c1ccc(C(F)(F)F)cc1)S(=O)(=O)c1ccc(N2C(=O)CCC2=O)cc1 -38.7%, Cc1cc(C(=O)COc2cc(F)ccc2[N+](=O)[O-])c(C)n1C1CC1 8.24%, O=C(Nc1nc2cc3c(cc2s1)OCCO3)c1ccc([N+](=O)[O-])o1 -62.8%, CC(C)CN(C(=O)CCNC(=O)c1ccc(Cl)cc1)c1c(N)n(CC(C)C)c(=O)[nH]c1=O -16.1%, CC1=C(C(=O)N2CCOCC2)C(c2cccc3ccccc23)NC(=S)N1 (configuration not stated) 7.02%, COc1ccc(-n2nc(C(=O)NCC(=O)Nc3cccc(Cl)c3)c3ccccc3c2=O)cc1 -37.1%, COc1ccc(NS(=O)(=O)c2ccc(NC(=O)c3ccccn3)cc2)cc1 20.5%, CCCCCCCCC/C(=N\O)c1ccccn1 -18.7%, Cc1ccc(CNc2nc3ccccc3s2)s1 61.9%, O=C(CCCN1C(=O)S/C(=C\C=C\c2ccccc2)C1=O)Nc1ccc(C(=O)O)cc1 -100%, COc1ccc(CCNc2nc(C)cc(C)n2)cc1OC 262%, C/C(CC(=O)Nc1ccc(N(C)C)cc1)=N\NC(=O)Cc1csc(N)n1 19.4%, COc1cc(/C=N/NC(=O)c2ccc(F)cc2)ccc1OC(=O)c1ccco1 12.2%, O=C(Nc1ncccc1O)c1cc2ccccc2o1 64.2% [activator] [at 0.0737 µM], CCOc1ccccc1C(=O)NC(C(=O)N(C)Cc1ccc2c(c1)OCO2)C(C)C (configuration not stated) 17.2%, O=C(CN(C(=O)c1csnn1)c1ccc(F)c(Cl)c1)NC1CCCCC1 -30.8%, O=C(CCCOc1cccc(Br)c1)NCCOc1ccccc1 -28.2%, Cc1cc(OCC(=O)N2CCC(C(=O)O)CC2)c2c(C)cc(=O)oc2c1 8.82%, O=C1NC(=O)/C(=C/c2cc3c(cc2Br)OCO3)S1 -15.6%, COc1cc(=O)[nH]c(SC(C)C(=O)Nc2ccc3ccccc3c2)n1 (configuration not stated) -33.2%, CSc1ccc(Cl)c(C(=O)NCC(C)C)c1 58.9%, CCC(C(=O)NN1C(=O)c2ccccc2C1=O)c1ccccc1 (configuration not stated) 6.15%, CC(Oc1ccc2c(c1)oc(=O)c1ccccc12)C(=O)NCCN1CCOCC1 (configuration not stated) -0.179%, O=C(NCc1ccccn1)Nc1ccccc1Cl 5.46%

Lipid storage change, negative = inhibition, inactive:
Cc1cc(Cl)c2oc(C(=O)N(C)CCc3cnn(C)c3)c(C)c2c1, O=[N+]([O-])c1cccc(-c2ccc(C(=S)N3CCOCC3)o2)c1, O=C(CN1CCN(S(=O)(=O)c2ccccc2)CC1)Nc1ccc(Cl)c([N+](=O)[O-])c1

Potency, inconclusive:
Clc1ccccc1OCCn1ccnc1 6.51 µM [activator, single point], CC(=O)Nc1ccc(/C=C/C(=O)c2ccccc2)cc1 0.92 µM [falling, full curve, poor fit], COCCN(Cc1nnc(-c2cccs2)o1)C(=O)c1cccc(S(=O)(=O)N2CCOCC2)c1 0.411 µM [activator, single point], CCCn1c(=O)c2ccccc2n2c(SCC(=O)c3cc(C)n(CCOC)c3C)nnc12 29.1 µM [falling, single point], Cc1c(C(=O)N2CCCCC2)oc2ccc(S(=O)(=O)N3CC(C)CC(C)C3)cc12 (configuration not stated) 29.1 µM [falling, single point], N=c1c(S(=O)(=O)c2ccccc2)cc2c(=O)n3ccccc3nc2n1CC1CCCO1 (configuration not stated) 0.92 µM [activator, partial curve], CC(C)COc1ccc(C(=O)Nc2ccc(NC(=O)c3ccco3)cc2)cc1 5.17 µM [falling, single point], COC(=O)c1ccccc1C(=O)N1CCCC(CCC(=O)NCc2ccc(F)c(F)c2)C1 (configuration not stated) 29.1 µM [falling, partial curve, poor fit], C=CCn1c(Cc2ccc(OC)cc2)nnc1SCc1nc2ccccc2c(=O)[nH]1 0.92 µM [activator, full curve, poor fit], N#C/C(=C\c1c[nH]c2ccc(Br)cc12)c1ccccn1 20.6 µM [falling, single point], CCc1cc(C(=O)N/N=C/c2ccc(O)cc2O)c2ccccc2n1 29.1 µM [falling, single point], O=S(=O)(NCCOc1cccc2cccnc12)c1ccc(F)cc1 2.91 µM [activator, partial curve, poor fit], O=C(Cc1ccc(Cl)cc1)Nc1cccc(C(=O)Nc2ccccc2C(=O)O)c1 23.1 µM [falling, single point], O=C(CCCOc1ccccc1)NCCc1nc2ccccc2[nH]1 0.291 µM [falling, full curve], Cc1ccc(OCC(=O)NC2CCCC(C)C2C)c([N+](=O)[O-])n1 (configuration not stated) 0.092 µM [falling, full curve, poor fit], NC(=O)c1ccc(NC(=O)Nc2ccc3c(c2)OCO3)cc1 1.3 µM [activator, full curve, poor fit], Cc1c(NC(=O)c2ccc3c(c2)C(=O)N(CC2CCCO2)C3=O)cccc1C(=O)O (configuration not stated) 29.1 µM [falling, partial curve, poor fit], COc1ccc(C(=O)O)cc1S(=O)(=O)NCCCN1CCCC1=O 1.46 µM [falling, partial curve], CCn1c(SCC(=O)NC2CC2)nnc1-c1ccccc1OC 29.1 µM [activator, single point], CC1CN(CCOCCSc2ccc(Cl)cc2)CC(C)O1 (configuration not stated) 29.1 µM [falling, single point]
